Source: patent US5521157A, “Modified polypeptide compound with VIP-like activity” (Sanwa Kagaku Kenkyusho Co., Ltd., priority 1993, dated 1996)
At least one peptide structure holds a part that was inferred or is arguable (an end, a ring closure or a residue). Peptide text beside a SMILES is read from it.

How the values were obtained:
[1] = Measurement of elution time in reversed phase HPLC (correlates to hydrophobicity); format: physicochemical; settings: reversed phase C-18 column, 40° C., 0.012N hydrochloric acid with 15, 25 and 50% acetonitrile, 50 minutes, 0.8 ml/min
Protocol: (Measurement of elution time in reversed phase HPLC)
It is well known that the elution time in HPLC with the use of a reversed phase column correlates to the hydrophobicity of a compound (cf. J. Med. Chem., vol. 18, pp. 549-552 (1975) and J. Pharm. Sci., vol. 66, pp. 747-749 (1977)). Thus, the elution time of each of the VIP analog derivatives obtained in the above Reference Production Example and production Examples was measured under the HPLC conditions as specified below. As a control, natural VIP having a human type amino acid sequence (purchased from Peptide Institute, INC.) was employed.
Column: μ-BONDASPHERE C-18 column (manufactured by Millipore Corporation, 3.9 mm×150 mm)
Eluent: eluted with 0.012N hydrochloric containing 15, 25 and 50% of acetonitrile in this order, for 50 minutes
Detection wavelength: 210 nm

[2] = system: histamine-induced bronchoconstriction; test: Duration of bronchoconstriction suppressing activity (Konzett-Rossler method); format: in vivo; settings: male guinea pig, drug dropped directly into the respiratory tract, 5 μg/kg histamine intravenously
Protocol: (Duration of bronchoconstriction suppressing activity)
The inhibitory activity of the VIP analog derivatives, obtained in the Production Examples above, on histamine-induced bronchoconstriction was evaluated on test samples in accordance with a Konzett-Rossler method. Natural type VIP was used as a control.
First, a male guinea pig was fixed under urethane-anesthesia. After cutting the neck of the animal, a canula drug line was inserted into its jugular vein while a canula connected to a Konzett-Rossler device was inserted into its respiratory tract. After dropping a test drug directly into the respiratory tract, the head of the animal was held up for 1 minute to allow the drug to reach the lungs. Subsequently, 5 μg/kg of histamine was intravenously administered to the animal and the bronchoconstriction was measured over time. One minute before the administration of histamine, succinylcholine chloride was intravenously administered to the animal to thereby suppress spontaneous respiration during the experiment. […] Before the administration of the test drug, the intensity of bronchoconstriction induced by histamine was measured. Then, after the administration of the test drug, the time required for reducing by 50% the suppression of bronchoconstriction induced by the same dose of histamine as measured above was defined as t50. The t50 of each test drug was determined.

CCCCCCNC(=O)[C@H](CCO)NC(=O)[C@H](CCCCN)NC(=O)[C@H](CC(C)C)NC(=O)[C@H](C)NC(=O)[C@H](CCCCN)NC(=O)[C@H](CC(N)=O)NC(=O)[C@H](CC(C)C)NC(=O)[C@H](Cc1ccc(O)cc1)NC(=O)[C@H](CCCCN)NC(=O)[C@H](CCCCN)NC(=O)[C@H](C)NC(=O)[C@H](C)NC(=O)[C@H](CC(C)C)NC(=O)[C@H](CCC(N)=O)NC(=O)[C@H](CCCCN)NC(=O)[C@H](CCCNC(=N)N)NC(=O)[C@H](CC(C)C)NC(=O)[C@H](CCCCN)NC(=O)[C@@H](NC(=O)[C@H](Cc1ccc(O)cc1)NC(=O)[C@H](CC(N)=O)NC(=O)CNC(=O)[C@@H](NC(=O)[C@H](Cc1ccccc1)NC(=O)[C@@H](NC(=O)[C@H](C)NC(=O)[C@H](CC(=O)O)NC(=O)[C@H](CO)NC(=O)[C@@H](N)Cc1c[nH]cn1)C(C)C)[C@@H](C)O)[C@@H](C)O [Production Example 2, VIP analog-n-hexylamide derivative] (HELM PEPTIDE1{H.S.D.A.V.F.T.G.N.Y.T.K.L.R.K.Q.L.A.A.K.K.Y.L.N.K.A.L.K.[O=C([C@H](CCO)N[*:1])[*:2]].[CCCCCCN[*:1]]}$$$$V2.0)
Retention time [1]: 24.2 min | t50 [2]: 60 min
